Results reported in the supplement of paper PMC4962491.
Counter-ions that a name gives are not always drawn. ± gives the standard deviation of the averaged measurements. Only a part is listed here, and it is no random draw. This data set is noisy: repeats of one test often differ as much as different tests do.

Tested on: FaDu
Assay: mitochondrial oxygen consumption rate normalised to cell number, Z score over the library; higher = higher oxygen consumption (negative = OCR reduction)
Details: treatment time 24 h, assay medium: 5 mM galactose, 5 mM pyruvate, 4 mM glutamine
Protocol: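 Primary screen: FaDu cells were incubated 24 h with Pharmakon 1600 / TDI oncology set compounds at 2 or 10 uM. Mitochondrial-specific OCR (basal minus 2 uM antimycin A) was measured on a Seahorse XF96 in assay medium with 5 mM galactose, 5 mM pyruvate and 4 mM glutamine, then corrected for Hoechst cell number and expressed as a Z score […]. Compounds that cut cell number by >66% were excluded. Two repeats.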

| Structure (SMILES) | mitochondrial oxygen consumption rate normalised (2 µM) | mitochondrial oxygen consumption rate normalised (10 µM) |
| --- | --- | --- |
| CC1CC2C3CCC4=CC(=O)C=CC4(C)C3(F)C(O)CC2(C)C1C(=O)CO (stereo unspecified) | -0.215 ± 0.0033 | – |
| CC=CC(=O)N(CC)c1ccccc1C | -0.329 ± 0.14 | – |
| CN(C)C(=N)NC(=N)N | -0.544 ± 0.47 | – |
| NCCCCCC(=O)O | 1.32 ± 0.82 | – |
| Nc1nc2c(ncn2COC(CO)CO)c(=O)[nH]1 | 0.36 ± 0.068 | – |
| CCCCCCCCCCCCCCCC(=O)OC[C@H](O)[C@H]1OC(=O)C(O)=C1O | 0.851 ± 0.43 | – |
| Clc1cccc(Cl)c1NC1=NCCN1 | 0.256 ± 1.6 | – |
| CO[C@H]1/C=C/O[C@@]2(C)Oc3c(C)c(O)c4c(O)c(c5c(nc6cc(C)ccn65)c4c3C2=O)NC(=O)/C(C)=C\C=C\[C@H](C)[C@H](O)[C@@H](C)[C@@H](O)[C@@H](C)[C@H](OC(C)=O)[C@@H]1C | -0.44 ± 0.85 | 0.795 ± 0.38 |
| Cc1cc(O)c(C(=O)N[C@@H](C(=O)N[C@@H]2C(=O)N3C(C(=O)O)=C(CSc4nnnn4C)CS[C@H]23)c2ccc(O)cc2)cn1 | -0.71 ± 0.4 | – |
| CC(=O)O[C@]1(C(C)=O)CC[C@H]2[C@@H]3C=C(Cl)C4=CC(=O)CC[C@]4(C)[C@H]3CC[C@@]21C | -0.389 ± 0.87 | – |
| CCN(CC)C(C)CN1c2ccccc2Sc2ccccc21 (stereo unspecified) | 0.271 ± 0.47 | – |
| CCCNC(=O)NS(=O)(=O)c1ccc(Cl)cc1 | 1.05 ± 1.4 | – |
| O=C1NCC2(CCN(CCc3ccccc3)CC2)O1 | 0.291 ± 0.64 | – |
| CN(C)CCOC(c1ccccc1)c1ccccc1.Cn1c(=O)c2[nH]c(Cl)nc2n(C)c1=O | -0.443 ± 0.78 | – |
| Cc1cc2nc3c(=O)[nH]c(=O)nc-3n(C[C@H](O)[C@H](O)[C@H](O)CO)c2cc1C | 0.987 ± 0.05 | – |
| CCCOc1ccc2[nH]c(NC(=O)OC)nc2c1 | 0.174 ± 1.5 | – |
| CCN(CC)C(=O)c1ccc(O)c(OC)c1 | 0.235 ± 0.31 | – |
| O=C(c1ccc(F)cc1)C1CCN(CCn2c(=O)[nH]c3ccccc3c2=O)CC1 | 0.341 ± 0.15 | – |
| CC(=O)[C@@]1(O)CC[C@H]2[C@@H]3CCC4=CC(=O)CC[C@]4(C)[C@H]3CC[C@@]21C | -1.44 ± 1.2 | – |
| Cc1cc(C)nc(NS(=O)(=O)c2ccc(N)cc2)n1 | -0.531 ± 0.27 | – |
| CCCCCCCC/C=C\CCCCCCCC(=O)O.NCCO | 0.00961 ± 1.2 | – |
| COc1cc(NS(=O)(=O)c2ccc(N)cc2)ncn1 | 0.672 ± 0.45 | 0.47 ± 0.61 |
| CC1(C)O[C@@H]2C[C@H]3[C@@H]4C[C@H](F)C5=CC(=O)C=C[C@]5(C)[C@@]4(F)[C@@H](O)C[C@]3(C)[C@]2(C(=O)CO)O1 | -0.419 ± 0.62 | – |
| COC(=O)N/N=C/c1c[n+]([O-])c2ccccc2[n+]1[O-] | 1.12 ± 0.47 | – |
| CN(C(=O)CN(CCO)CC(=O)N(C)C(C)(C)Cc1ccccc1)C(C)(C)Cc1ccccc1 | 0.525 ± 0.92 | – |

| Structure (SMILES) | mitochondrial oxygen consumption rate normalised (2 µM) | mitochondrial oxygen consumption rate normalised (10 µM) |
| --- | --- | --- |
| CC(C)[C@H](N)C(=O)OCCOCn1cnc2c(=O)nc(N)[nH]c21 | 0.264 ± 0.27 | – |
| CC(C(O)c1ccc(O)cc1)N1CCC(Cc2ccccc2)CC1 (stereo unspecified) | -1.28 ± 0.75 | – |
| C[C@@H]1C/C=C/C=C/C=C/C=C/[C@H](O[C@@H]2O[C@H](C)[C@@H](O)[C@H](N)[C@@H]2O)C[C@@H]2O[C@](O)(C[C@@H](O)C[C@H]3O[C@@H]3/C=C/C(=O)O1)C[C@H](O)[C@H]2C(=O)O | -0.0302 ± 0.33 | – |
| COc1ccc(Cl)cc1C(=O)NCCc1ccc(S(=O)(=O)NC(=O)NC2CCCCC2)cc1 | 0.578 ± 0.011 | – |
| CCCCCCNC(=O)n1cc(F)c(=O)[nH]c1=O | 0.607 ± 1.3 | – |
| CCCOc1ccccc1-c1nc2[nH]nnc2c(=O)[nH]1 | 0.522 ± 0.66 | – |
| CC(=O)Nc1ccc(OC(=O)c2ccccc2O)cc1 | -0.534 ± 0.16 | -0.337 ± 0.25 |
| COc1cc2nc(N3CCN(C(=O)C4COc5ccccc5O4)CC3)nc(N)c2cc1OC (stereo unspecified) | 0.927 ± 0.94 | – |
| CCCCC1C(=O)N(c2ccccc2)N(c2ccc(O)cc2)C1=O (stereo unspecified) | -0.199 ± 0.27 | – |
| N[C@H]1CONC1=O | 0.285 ± 1.1 | – |
| O=C(CCBr)N1CCN(C(=O)CCBr)CC1 [Pipobroman] | 0.16 ± 0.79 | -0.527 ± 1.4 |
| O=C(CCBr)N1CCN(C(=O)CCBr)CC1 | 0.446 ± 1.6 | 1.32 ± 1.1 |
| CCN(CC)CCOCCOC(=O)C1(c2ccccc2)CCCC1 | -0.0751 ± 1.1 | – |
| CC#CCn1c(N2CCC[C@@H](N)C2)nc2c1c(=O)n(Cc1nc(C)c3ccccc3n1)c(=O)n2C | -0.191 ± 0.092 | 0.0591 ± 0.1 |
| O=P(O)(O)C(O)(Cn1ccnc1)P(=O)(O)O [Zoledronic Acid] | 1.02 ± 0.43 | – |
| CCN(CCCCOC(=O)c1ccc(OC)c(OC)c1)C(C)Cc1ccc(OC)cc1 (stereo unspecified) | 0.16 ± 0.55 | – |
| Cc1cc(C(C)(C)C)cc(C)c1CC1=NCCN1 | 0.145 ± 0.013 | – |
| CCN(CC)C(=O)C1(c2ccccc2)CC1CN (stereo unspecified) | 0.372 ± 0.47 | – |
| CC(C)(CO)[C@@H](O)C(=O)NCCC(=O)O [PANTOTHENIC ACID(d) Na salt] | 1.16 ± 0.33 | – |
| O=C(O)c1ccc[n+]([O-])c1 | -0.0161 ± 0.072 | – |
| NC[C@H]1O[C@H](O[C@H]2[C@H](O)[C@@H](O[C@H]3O[C@H](CO)[C@@H](O)[C@H](N)[C@H]3O)[C@H](N)C[C@@H]2N)[C@H](N)C[C@@H]1O | 0.138 ± 0.066 | – |
| CCOC(=O)Nc1nc2ccccc2[nH]1 | -0.438 ± 0.052 | – |
| CC(C)[N+]1(C)[C@@H]2CC[C@H]1C[C@@H](OC(=O)C(CO)c1ccccc1)C2 (stereo partly specified) | 0.772 ± 0.15 | – |
| Cc1ccc(-c2cc(C(F)(F)F)nn2-c2ccc(S(N)(=O)=O)cc2)cc1 | 0.564 ± 1.7 | – |
| Cc1ccc(-c2cc(C(F)(F)F)nn2-c2ccc(S(N)(=O)=O)cc2)cc1 [Celecoxib] | 0.7658 ± 0.005 | – |

Laid out differently: results already given.
Cc1cc(O)c(C(=O)N[C@@H](C(=O)N[C@@H]2C(=O)N3C(C(=O)O)=C(CSc4nnnn4C)CS[C@H]23)c2ccc(O)cc2)cn1
  mitochondrial oxygen consumption rate normalised (2 µM): -0.71 ± 0.4
CCN(CC)C(C)CN1c2ccccc2Sc2ccccc21 (stereo unspecified)
  mitochondrial oxygen consumption rate normalised (2 µM): 0.271 ± 0.47
CN(C(=O)CN(CCO)CC(=O)N(C)C(C)(C)Cc1ccccc1)C(C)(C)Cc1ccccc1
  mitochondrial oxygen consumption rate normalised (2 µM): 0.525 ± 0.92
